Experimental data taken from patent publication US20260132208A1.
These are yes or no findings as the source states them, for the method shown. Some binding calls cover weakened binding; strength is not graded here.

Sequences of proteins named here, by UniProt entry; tags and fusion partners are left off. A change or cut given only in a name is not applied to a line headed by its entry.
UniProt P51685: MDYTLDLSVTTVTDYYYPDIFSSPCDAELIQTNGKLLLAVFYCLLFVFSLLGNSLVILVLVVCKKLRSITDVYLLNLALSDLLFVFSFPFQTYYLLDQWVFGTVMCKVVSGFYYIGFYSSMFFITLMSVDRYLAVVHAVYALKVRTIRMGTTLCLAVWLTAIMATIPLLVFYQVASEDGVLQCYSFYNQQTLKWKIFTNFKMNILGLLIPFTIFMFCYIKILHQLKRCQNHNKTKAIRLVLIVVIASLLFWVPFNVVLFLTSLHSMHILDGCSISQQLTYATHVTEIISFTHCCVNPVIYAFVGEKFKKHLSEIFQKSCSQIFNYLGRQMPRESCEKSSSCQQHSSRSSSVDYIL

What was measured:
pm3 = test: ELISA on coated peptide [cont.]
pm5 = test: ELISA on coated peptide [cont.]
pm8 = test: ELISA on coated peptide [cont.]
pwt1 = test: ELISA on coated peptide [cont.]
pm6 = test: ELISA on coated peptide [cont.]
human CCR8 (human) [1] = biological target: human CCR8 (human) (UniProt P51685); test: flow cytometry competition on hCCR8 transfected CHO cells; blocked ligand hCCL1-AF647 [cont.]
human CCR8 (human) [2] = biological target: human CCR8 (human) (UniProt P51685); test: flow cytometry, hCCR8-transfected CHO-K1 cells

Measured: binding

B1: anti-CCR8 mAb 1-17 (antibody, V domains shown)
VH: QVQLQQPGSELVRPGASVKLSCKASGYTFTSYWMHWVKQRPGQGLEWIGNIWPGSASTNYDEKFKNKATLTVDTSSSTAYMQLSSLTSEDSAVYYCIRGGKGAMDYWSQGTSVTVSS
VL: DVVMTQIPLSLPVSLGDQASISCRSSQSLENSYGNTYLNWYLQKPGQSPQLLIYRVSNRFSGVLDRFSGSGSGTDFTLKISRVEAEDLGVYFCLQVTHVPPTFGAGTKLELK
binds: all assays above
